The values that follow come from PMC3846746.

This assay has as its target T1, caveolin-1 (rat (endogenous in A7r5)) (UniProt P41350).
T1 sequence: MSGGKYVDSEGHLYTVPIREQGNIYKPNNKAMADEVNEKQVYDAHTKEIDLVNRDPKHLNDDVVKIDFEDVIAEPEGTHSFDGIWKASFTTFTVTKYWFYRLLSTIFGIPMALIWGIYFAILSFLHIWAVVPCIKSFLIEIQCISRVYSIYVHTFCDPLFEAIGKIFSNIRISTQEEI
The experiment in a line: co-IP; immunoprecipitation experiments told only in the discussion, no figure; which antibody precipitated is not told.

No constants are given. Whether binding was seen depends on the method and setting. Binding seen in cells or lysates may run through a third protein.

Turning to “IQ motif containing GTPase activating protein 1 (rat (endogenous in A7r5))”, the binding entry is “no binding”.
